For 1 substance, minimum detectable dose results are on record in patent publication US6875578B2, “System for cell-based screening” (priority 1997, dated 2005).

This data set concerns NF-κB. As to the kind of experiment: NF-κB immunolocalization in toxin treated 3T3 cells. The class given is cell-based. The source says:
For further studies, we characterized endogenous NF-κB activation by immunolocalization in toxin treated cells. The NF-κB antibodies used in this study were purchased from Santa Cruz Biotechnology, Inc. (Santa Cruz, Calif.), and secondary antibodies are from Molecular Probes (Eugene, Oreg.).
For the 3T3 and SNB19 cell types, we determined the effective concentrations that yield response levels of 50% of the maximum (EC50), expressed in units of mass per volume (ng/ml) and units of molarity. Based on molecular weights of 17 kD for both TNFα and IL-1α, the EC50 levels for these two compounds with 3T3 and SNB19 cell types are given in units of molarity in Table 1.
For these experiments, either 10 or 100 TNFα-treated 3T3 or SNB19 cells/well were tested. On the basis of the standard deviations measured for these samples, and by taking t-values for the student's t-test, we have estimated the minimum detectable doses for each case of cell type, compound, number of cells per well, and for different choices of how many wells are sampled per condition. The latter factor determines the number of degrees of freedom that are provided in the sample of data. […] If the false positive rate is relaxed to 20%, a concentration of approximately half that value can be detected (0.83 ng/ml). […]

On to tumor necrosis factor [TNFα], for which the minimum detectable dose is, setting by setting: (1% false negative and 1% false positive rates, 100 cells per well, 12 or 16 wells) about 0.15 ng/mL; (false positive rate relaxed to 20%) about 0.83 ng/mL.
